This experiment deals with HEK293A TEAD-LUC reporter. Kind of experiment: TEAD-luciferase reporter activity (YAP activation), robust Z score vs plate; higher = stronger YAP/TEAD activation. The conditions noted are these: 24 h. A general note: In a reporter assay the amount or activity of a reporter protein is the signal.

Structures can show the parent of a compound that is named as a salt. This is one part of the list. Single values are uncertain here, since repeats match poorly.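 Human kidney-derived cells stably carry a construct in which eight TEAD-binding elements drive luciferase, measured by luminescence in a drug-repurposing library screen. A hit is any compound whose signal exceeds the plate mean by more than five robust Z scores.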

Consider `CC(=O)c1ccc2c(c1)N(CC(C)N(C)C)c1ccccc1S2` (configuration not stated), for which the TEAD-luciferase reporter activity runs as follows: (compound concentration: 200 nM) inactive: -1.33; (compound concentration: 2 uM) inactive: 1.64; (compound concentration: 10 uM) inactive: 0.831.
Turning to `C1CCC2=NCCCN2CC1`, the TEAD-luciferase reporter activity by setting is: (compound concentration: 200 nM) inactive: 0.00386; (compound concentration: 2 uM) inactive: -0.775; (compound concentration: 10 uM) inactive: -0.00154.
With `CCCn1nc(C(C)C)c(C(=O)O)c1Cc1ccc(-c2ccccc2-c2nnn[nH]2)cc1`, the TEAD-luciferase reporter activity is, setting by setting: (compound concentration: 200 nM) inactive: -0.938; (compound concentration: 2 uM) inactive: -0.747; (compound concentration: 10 uM) inactive: -0.347.
`Cc1ccc(NS(=O)(=O)c2cccc(C#N)c2)c2[nH]cc(C#N)c12`: the TEAD-luciferase reporter activity was inactive: 0.23 (compound concentration: 200 nM), inactive: 3.86 (compound concentration: 2 uM) and active: 5.09 (compound concentration: 10 uM).
As to `CC1=C(CO)C(=O)O[C@@H]([C@@H](C)[C@H]2CCC3[C@@H]4C[C@H]5O[C@]56[C@@H](O)C=CC(=O)[C@]6(C)C4CC[C@@]32C)C1` (some centres not stated), the TEAD-luciferase reporter activity was inactive: -1.07 (compound concentration: 200 nM), inactive: 1.6 (compound concentration: 2 uM) and active: 7.16 (compound concentration: 10 uM).
For `COc1ccc(OCC(O)CN2CCC(c3ccc(O)cc3)CC2)cc1` (configuration not stated), the TEAD-luciferase reporter activity runs as follows: (compound concentration: 200 nM) inactive: 1.97; (compound concentration: 2 uM) inactive: -0.0381; (compound concentration: 10 uM) inactive: 4.19.
On to `NCCC(=O)NCCSSCCNC(=O)CCN`, for which the TEAD-luciferase reporter activity by setting is: (compound concentration: 200 nM) inactive: -0.168; (compound concentration: 10 uM) inactive: -0.579.
With `NCCC(=O)NCCSSCCNC(=O)CCN` [beta-Alethine], the TEAD-luciferase reporter activity (compound concentration: 2 uM) is inactive: -0.769.
For `O=C(C1CCCN(S(=O)(=O)c2cccc(C(F)(F)F)c2)C1)N1CCC(N2CCCC2=O)CC1` (configuration not stated), the TEAD-luciferase reporter activity reads like this: (compound concentration: 200 nM) inactive: 2.58; (compound concentration: 10 uM) inactive: -1.41.
Consider `C#C[C@]1(O)CC[C@H]2[C@@H]3CCC4=CC(=O)CC[C@@H]4[C@H]3CC[C@@]21CC` [Levonorgestrel], for which the TEAD-luciferase reporter activity by setting is: (compound concentration: 200 nM) inactive: -0.944; (compound concentration: 2 uM) inactive: -0.0392; (compound concentration: 10 uM) inactive: -0.154.
Turning to `CN(Cc1cnc2nc(N)nc(N)c2n1)c1ccc(C(=O)N[C@@H](CCC(=O)O)C(=O)O)cc1`, the TEAD-luciferase reporter activity runs as follows: (compound concentration: 200 nM) inactive: 2.44; (compound concentration: 10 uM) inactive: 1.65.
Turning to `CN(Cc1cnc2nc(N)nc(N)c2n1)c1ccc(C(=O)N[C@@H](CCC(=O)O)C(=O)O)cc1` [Methotrexate], for the setting “compound concentration: 2 uM”, the TEAD-luciferase reporter activity is inactive: -0.263.
Consider `C[C@H](NC(=O)C(C)(C)Oc1ccc(C(F)(F)F)cn1)[C@@H](Cc1ccc(Cl)cc1)c1ccc(Cl)cc1` [CB1R inverse agonist, Merck], for which the TEAD-luciferase reporter activity is inactive: -0.335 (compound concentration: 200 nM), inactive: -0.59 (compound concentration: 2 uM) and inactive: -1.24 (compound concentration: 10 uM).
Consider `CC(COc1ccccc1)NC(C)C(O)c1ccc(O)cc1` (configuration not stated), for which the TEAD-luciferase reporter activity (compound concentration: 2 uM) is inactive: 0.337.
As for `CC(COc1ccccc1)NC(C)C(O)c1ccc(O)cc1` (configuration not stated) [Duvadilan], the TEAD-luciferase reporter activity runs as follows: (compound concentration: 200 nM) inactive: -0.588; (compound concentration: 10 uM) inactive: -1.67.
Regarding `C#Cc1ccc2c(c1)CCC1=C(C)C(=O)CCN12`, the TEAD-luciferase reporter activity is inactive: -1.47 (compound concentration: 200 nM), inactive: 1.15 (compound concentration: 2 uM) and inactive: 0.812 (compound concentration: 10 uM).
For the molecule `C[C@@H]1CCNC1c1nc2c(C(N)=O)cccc2[nH]1` (some centres not stated), the TEAD-luciferase reporter activity reads like this: (compound concentration: 200 nM) inactive: -1.23; (compound concentration: 2 uM) inactive: -0.594; (compound concentration: 10 uM) inactive: -0.606.
Take `N=C(N)NCCC[C@H](NC(=O)CNC(=O)CCSC(=O)c1ccccc1)C(=O)O` [argitiopronine]: the TEAD-luciferase reporter activity (compound concentration: 200 nM) was inactive: -1.7, the TEAD-luciferase reporter activity (compound concentration: 2 uM) was inactive: -0.637 and the TEAD-luciferase reporter activity (compound concentration: 10 uM) was inactive: 2.66.
For `CC(C)S(=O)(=O)n1c(N)nc2ccc(/C(=N/O)c3ccccc3)cc21` [Enviroxime], the TEAD-luciferase reporter activity is inactive: -1.71 (compound concentration: 200 nM), inactive: -1.97 (compound concentration: 2 uM) and inactive: -1.64 (compound concentration: 10 uM).
Take `CN(C)c1ccc([P+](CCCCl)(c2ccc(N(C)C)cc2)c2ccc(N(C)C)cc2)cc1`: the TEAD-luciferase reporter activity was inactive: -1.91 (compound concentration: 200 nM), inactive: -0.504 (compound concentration: 2 uM) and inactive: 0.72 (compound concentration: 10 uM).
With `CN1CCN(c2ccc(Nc3ncc4cc5n(c4n3)C3(CCCCC3)CNC5=O)nc2)CC1` [Trilaciclib hydrochloride], the TEAD-luciferase reporter activity runs as follows: (compound concentration: 200 nM) inactive: -0.639; (compound concentration: 10 uM) inactive: 1.1.
Consider `O=C(Cn1c2ccccc2c2c(N3CCCC3)nc(N3CCCC3)nc21)N1CCCC1`, for which the TEAD-luciferase reporter activity was inactive: -0.924 (compound concentration: 200 nM), inactive: 1.3 (compound concentration: 2 uM) and inactive: 3.17 (compound concentration: 10 uM).
For the molecule `CCCCc1oc2ccc(NS(C)(=O)=O)cc2c1C(=O)c1ccc(OCCCN(CCCC)CCCC)cc1` [dronedarone hydrochloride], the TEAD-luciferase reporter activity is, setting by setting: (compound concentration: 200 nM) inactive: -2.53; (compound concentration: 2 uM) inactive: 1.4; (compound concentration: 10 uM) active: 7.15.
With `COc1c(OC)c(OC(C)=O)c2cc(Cl)ccc2c1OC(C)=O`, the TEAD-luciferase reporter activity (compound concentration: 200 nM) was inactive: -1.01, the TEAD-luciferase reporter activity (compound concentration: 2 uM) is inactive: 1.61 and the TEAD-luciferase reporter activity (compound concentration: 10 uM) was inactive: -1.19.
`COc1ccc(CC(=O)N2CCC3(CC2)CC(NC(C)=O)c2ccccc23)cc1` (configuration not stated): the TEAD-luciferase reporter activity reads like this: (compound concentration: 200 nM) inactive: 0.0964; (compound concentration: 10 uM) inactive: 0.459.
As to `CCOC(=O)c1cc(OC)ccc1O`, the TEAD-luciferase reporter activity was inactive: -0.469 (compound concentration: 200 nM), inactive: 0.517 (compound concentration: 2 uM) and inactive: -1.34 (compound concentration: 10 uM).
As for `CC(CN(C)C)CN1c2ccccc2Sc2ccccc21` (configuration not stated), the TEAD-luciferase reporter activity is, setting by setting: (compound concentration: 200 nM) inactive: -0.516; (compound concentration: 10 uM) active: 10.
For the molecule `CC(CN(C)C)CN1c2ccccc2Sc2ccccc21` (configuration not stated) [Trimeprazine tartrate], the TEAD-luciferase reporter activity (compound concentration: 2 uM) is inactive: 3.73.
For the molecule `CCc1noc(C2CN=CNC2)n1` (configuration not stated), the TEAD-luciferase reporter activity reads like this: (compound concentration: 200 nM) inactive: -0.254; (compound concentration: 2 uM) inactive: 0.172; (compound concentration: 10 uM) inactive: -1.03.

The values above are taken from the supplement of paper PMC10735217.
